In the RepoRT retention time repository:

Test: RP, Restek Raptor Biphenyl, 100 × 2.1 mm, 2.7 µm, 50 °C, 0.4 mL/min, estimated dead time 0.55 min; A: water + 0.1% formic acid, pH 3; B: methanol + 0.1% formic acid, pH 3; gradient (min/%B) 0/5 1.12/5 6.41/99.5 10.01/99.5
Conditions: stereoisomer not certain

LC retention time [min] | Compound
0.746 | O=C(O)C1=CC(=O)C(O)C(O)C1 (configuration not stated) [3-DEHYDROSHIKIMATE]
3.31 | O=C(O)C(=O)Cc1ccc(O)cc1 [3-(4-HYDROXYPHENYL)PYRUVATE]
